Measured values from publication PMC12040169 (PLOS Biology, 2025).
Some of the results follow.

test system: T1, CTL2-GFP (C. trachomatis L2/434/Bu, GFP-expressing); set-up: species or system HeLa; Intracellular C. trachomatis growth in HeLa cells, bulk GFP fluorescence relative to DMSO; details: bulk GFP, single well; 28.5 h, 10 µM; inhibitor
T1 construct: L2/434/Bu, GFP-expressing

Row | Structure (SMILES) | % of control remaining [%]
1 | O=C1CC(c2noc(-c3ccncc3)n2)CN1c1ccccc1 (stereo not drawn) [CBK288043] | 127.383
2 | C/C(=N\NC(=O)C1CC1)c1ccc(C)cc1 [CBK016047] | 127.136
3 | O=C(CN(c1ccccc1F)S(=O)(=O)c1ccccc1)Nc1ccccc1C(=O)O [CBK263999] | 103.221
4 | Clc1ccc(CN2CCC(Oc3cncc(OCc4cccnc4)n3)C2)cc1 (stereo not drawn) [CBK084451] | 92.7973
5 | O=C(NCC(O)COc1ccccc1)c1cnn2c(-c3ccccc3)ccnc12 (stereo not drawn) [CBK298320] | 130.889
6 | COc1cc2c(cc1NC(=O)C/C(C)=N/NC(=O)c1ccoc1C)oc1ccccc12 [CBK262953] | 87.7063
7 | O=C(O)C1CCCN(C(=O)NCCOc2ccccc2)C1 (stereo not drawn) [CBK161366] | 118.31
8 | O=C(CC1Nc2ccccc2NC1=O)Nc1cccc(C(=O)O)c1 (stereo not drawn) [CBK263155] | 107.938
9 | CC(Oc1ccc(Cl)cc1)C(=O)Nc1ncccn1 (stereo not drawn) [CBK288206] | 111.118
10 | NS(=O)(=O)c1ccc(CCNC(=O)c2ccc3c(c2)OCCO3)cc1 [CBK268128] | 99.6143
11 | COC(=O)c1sc2ncccc2c1NS(=O)(=O)c1ccc(C(F)(F)F)cc1[N+](=O)[O-] [CBK049969] | 101.121
12 | Cc1nc2c(c(=O)c3ccccc3n2C)c(=O)n1Cc1ccco1 [CBK287776] | 107.144
13 | O=C(Cc1ccccc1F)NCCn1nc2c(cc1=O)CCCCC2 [CBK284519] | 80.3647
14 | NC(=O)COc1ccc(CNC(=O)CN2CCc3ccccc32)cc1 [CBK306330] | 135.621
15 | Cc1nc(C(F)(F)F)ccc1C(=O)N(C)CCN1CCCCC1 [CBK281917] | 149.457
16 | CCc1n[nH]c(C(=O)N2CCc3ncc(Cl)cc3C2)c1C [CBK284856] | 91.2065
17 | CCC(CO)Nc1nc(-c2ccc(O)cc2)cn2ccnc12 (stereo not drawn) [CBK037471] | 107.633
18 | CCc1cc(OCCCSc2nc(C)cc(O)n2)ccc1Cl [CBK267364] | 117.567
19 | O=C(CSCc1nc2ccccc2[nH]1)Nc1cccc(C(F)(F)F)c1 [CBK268474] | 102.244
20 | CCOc1ccc(-c2cncc(Nc3cccc(C(F)(F)F)c3)n2)cc1 [CBK065798] | 204.641
21 | COc1ccc(C(=O)CCN(C)CC(=O)O)cc1 [CBK287227] | 133.021
22 | CN(C)c1nc(-c2ccc3c(c2)CCCN3S(C)(=O)=O)cs1 [CBK305016] | 109.395
23 | COc1ccc(OC)c(NC(=O)CNC(=O)c2ccc(C)cc2)c1 [CBK268881] | 105.744
24 | CC1Cc2cc(C(O)CN3CCCC3)ccc2N1C(=O)C1CC1 (stereo not drawn) [CBK286440] | 129.405
25 | Cc1ccc(S(=O)(=O)c2cccc(S(=O)(=O)N3CCCCC3)c2)cc1S(=O)(=O)N1CCCCC1 [CBK262207] | 91.025
26 | Cc1cccnc1NC(=O)c1ccc(NC(C)C)c([N+](=O)[O-])c1 [CBK269494] | 130.355

Among those listed so far, these contain an NH in an aromatic ring.
Row | Structure (SMILES) | % of control remaining [%]
16 | CCc1n[nH]c(C(=O)N2CCc3ncc(Cl)cc3C2)c1C [CBK284856] | 91.2065
19 | O=C(CSCc1nc2ccccc2[nH]1)Nc1cccc(C(F)(F)F)c1 [CBK268474] | 102.244

Next records follow:

Row | Structure (SMILES) | % of control remaining [%]
27 | CS(=O)(=O)N1CCC2(CC1)Cn1c(cc3ccccc31)C(=O)O2 [CBK282820] | 119.39
28 | S=C(Nc1ccccc1)Nc1nc2ccccc2n1CCOc1ccccc1 [CBK265487] | 98.9311
29 | O=c1oc2cc(S(=O)(=O)NCc3ccco3)ccc2c2ccc(S(=O)(=O)NCc3ccco3)cc12 [CBK267177] | 139.944
30 | Nc1ncc(-c2ccco2)nc1-c1ccc(C(=O)NCCO)cc1 [CBK064124] | 183.013
31 | CCOC(=O)c1c(-c2ccc(OC)cc2)noc1C(=O)c1ccccc1 [CBK002295] | 93.398
32 | Cc1cccc(-c2nnc(-c3ccc(NC(=O)CSCc4ccccc4)cc3)o2)c1 [CBK266775] | 116.193
33 | C1=CCC(CN2CCN(C3CCN(Cc4ccccc4)CC3)CC2)CC1 (stereo not drawn) [CBK263469] | 90.939
34 | O=C(CCn1c(C(F)F)cc2cccnc21)NC1CCCCC1 [CBK285064] | 120.935
35 | CCc1nn2c(=O)cc(CNc3ccc4c(c3)OCCO4)nc2s1 [CBK297787] | 90.0791
36 | CC(C)(C)S(=O)(=O)Nc1nccnc1-c1cccs1 [CBK050765] | 87.105
37 | O=C(CCc1cccnc1)NC1CCCC1 [CBK200239] | 116.173
38 | CC(C)c1nnc(C2(c3ccc(Br)cc3)CCOCC2)o1 [CBK306230] | 133.822
39 | COc1cccc(C2C(C(=O)c3ccc(Br)cc3)=C(O)C(=O)N2CCCN(C)C)c1 (stereo not drawn) [CBK264921] | 100
40 | COc1ccc(C(C)C)cc1-c1cnc2[nH]c(=O)n(C3CC3)c2n1 [CBK064915] | 182.098
41 | CCN(CC)C(=O)Cn1nc2c(C)cc3cc(C)ccc3n2c1=O [CBK283871] | 140.032
42 | O=C(Nc1nnc(C2=COCCO2)o1)c1cc(Cl)cc(Cl)c1 [CBK287418] | 142.067
43 | COc1ccc2c(c1)C1(CC(=O)N(CC(=O)N(C)OC)C1=O)C(=O)N2CCCCOc1ccccc1 (stereo not drawn) [CBK076032] | 145.508
44 | CSc1ncc(Cl)c(C(=O)Nc2nnc(SC/C=C/c3ccccc3)s2)n1 [CBK268691] | 139.453
45 | COc1ccc(-c2c(C)nc(N)nc2-c2ccc(OC)cc2O)cc1 [CBK288186] | 121.428
46 | Cc1noc(C)c1C(=O)N1C2CCC1CC(c1ccc(F)cc1)C2 (stereo not drawn) [CBK283738] | 106.496
47 | COc1cnc(-c2cnn(C)c2)c(NC(=O)C2CC2)n1 [CBK145328] | 110.301
48 | Cc1cc(CS(=O)(=O)N2CCOCC2c2cccc(F)c2)no1 (stereo not drawn) [CBK304093] | 148.508
49 | O=C(Nc1cc(Cl)cc(Cl)c1)c1ccc([N+](=O)[O-])s1 [CBK066840] | 94.46
50 | COc1cc(C(=O)Oc2cccc(Nc3ncnc4ccccc34)c2)cc(OC)c1OC [CBK264908] | 93.2228
51 | C[C@H](Nc1cncc(-c2cccs2)n1)c1ccccc1 [CBK065719] | 104.427
